The source of these data is patent US20070196879A1.

The assay addresses T1, human paraoxonase (PON1) (human) (UniProt P27169).
T1 sequence (chain, 2 glycosylated chains on the PON1 (positions not given)): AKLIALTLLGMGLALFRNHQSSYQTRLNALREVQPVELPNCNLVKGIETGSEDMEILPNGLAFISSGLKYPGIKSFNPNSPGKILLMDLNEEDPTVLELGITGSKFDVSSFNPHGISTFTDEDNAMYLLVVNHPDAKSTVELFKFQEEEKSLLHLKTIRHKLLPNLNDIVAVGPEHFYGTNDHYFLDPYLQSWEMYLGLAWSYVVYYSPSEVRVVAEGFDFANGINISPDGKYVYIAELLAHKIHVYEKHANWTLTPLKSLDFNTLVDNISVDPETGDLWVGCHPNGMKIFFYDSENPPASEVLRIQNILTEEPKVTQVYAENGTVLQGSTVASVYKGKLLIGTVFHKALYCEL
The assay can be described thus: co-purification from human plasma through an anion exchange column (DEAE sepharose); separated only on a two-dimensional gel under drastic conditions (9M urea, 4% triton).

No constants are given. Whether binding was seen depends on the method and setting. Binding seen in cells or lysates may run through a third protein. Some results given as binding are weak or reduced against the parent protein; the word gives no strength.

B1: human phosphate binding protein (HPBP), protein of the invention SEQ ID NO: 2 (protein)
chain: DINGGGATLPQKLYLTPDVLTAGFAPYIGVGSGKGKIAFLENKYNQFGTDTTKNVHWAGSDSKLTATELATYAADKEPGWGKLIQVPSVATSVAIPFRKAGANAVDLSVKELCGVFSGRIADWSGITGAGRSGPIQVVYRAESSGTTELFTRFLNAKCTTQPGTFAVTTVFANSYSLGLSPLAGAVAAIGSVGVMAADNDVTTAQGRITYISPDFAAPTLAGLDDATKVARTGKGSSSGGGAEGKSPAAANVSAAISVVPLPAAADRGDPNVWTPVFGAVTGGGVVAYPDSGYPILGFTDLIFSECYANATQTGQVRNFFTKHYGTSANDNAAIQANAFVPLPSNWKAAVRASYLTASNALSIGDSAVCGGKGRPE
Turning to B1, the binding result was “binds”.
